# Experimental data published in the supplement of paper PMC10338343.
# ± gives the standard deviation. The list shows a part of the results, in another mix than the full data. The uncertainty is large for many entries.
# Tested on: MILI (PIWIL2) piRISC loaded with piRNA #2 (26 nt)
# Experiment: pre-steady-state target cleavage rate (min^-1); MIWI and MILI are mouse PIWI proteins and EfPiwi is from a freshwater sponge; tags in brackets are library labels; higher = faster piRNA-guided slicing of the target
# Conditions: guide: piRNA #2 5'p-UUAGGUAACCCAGUAGAUCCAGAGGA; auxiliary factor: 500 nM mouse GTSF1
# Procedure, shortened: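 The pre-steady-state cleavage rate was calculated from a burst-and-steady-state fit. Data came from Cleave-'n-Seq, in which […] transcribed, DNA-blocked target RNA library was mixed with 1 nM active affinity-purified piRISC carrying one synthetic guide, with or without 500 nM GTSF1 partner protein, in HEPES–potassium acetate buffer at 33 °C for 0–8 or 0–960 min. Uncleaved targets were sequenced and normalised to depth and to weakly complementary targets, three trials were pooled, and k3 was capped at 0.0001 min^-1.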
# 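Further: 1 nM active piRISC with 0.1 nM target library at 33 °C single turnover.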
row,Sequence,pre-steady-state target cleavage rate
1,CUUAAGCUCUGGAUCAUACUGGGUUACCUAA,0.000822 ± 0.011
2,CUUAAGGAGACCAACUACUGGGUUACGUAA,0.00048 ± 0.018
3,CUUAUCCUCUGGAUCUACUCCGUUACCUAA,0.000269 ± 0.027
4,CUUAAGGAGUGGAUCUACAUGGGUUACCUAA,0.000336 ± 0.021
5,CUUAAGGACUGGAUCUACUGGGUUUGCUAA,0.000457 ± 0.04
6,CUUAAGGAGACCUAGAUGAGGGUUAACCUAA,0.00056 ± 0.012
7,CUUAAGGAGUGGAUCAUCUGGGUUACCUAA,0.00162 ± 0.007
8,CUUAAGGAGAGGAUCUACUGGGUUAGCUAA,0.000303 ± 0.045
9,CUUAAGCUCUGGAUCUACAGGCUUACCUAA,0.00236 ± 0.0058
10,CUUAACCUCUGGAUCUACUGCGUUUCCUAA,0.00295 ± 0.0053
11,CUUAUCCUCUGGAUCUUCUCGGUUACCUAA,0.00253 ± 0.0045
12,CUUAAGGAGACGAUCUACUGGAGUUACCUAA,0.00178 ± 0.0056
13,CUUAAGGAGACCUUCUACUGGGUUACCUCAA,0.0009 ± 0.011
14,CUUAAGGAGACGAUCUAACUGGGUUACCUAA,0.000451 ± 0.0075
15,CUUAAGGAGACCUUCUACUGGGUUACGCUAA,0.000395 ± 0.023
16,CUUAAGGAGACCAUCUACUGGGUUAACCUAA,0.000772 ± 0.01
17,CUUAUCCUCUGGAUCUACUGGGUUUCCAAA,0.134 ± 0.047
18,CUUAAGGAGACCUAGAUGUGGGUUACCAAA,0.000308 ± 0.021
19,CUUAAGGAGACCAUCUACUGGGAAACCUAA,0.000528 ± 0.015
20,CUUAAGGACUGGAUCUACUGGGUAUGCUAA,0.000244 ± 0.038
21,CUUAAGGUGUGGAUCUACUCGGUUACCUAA,0.000532 ± 0.027
22,CUUAAGCUCUGGAUCUACGUGGGUUACCUAA,0.000368 ± 0.015
23,CUUAAGGAGACCAUCUACUGGGUUACCUCAA,0.00082 ± 0.011
24,CUUAAGGACUGGAUCUUGUGGGUUACCUAA,0.00558 ± 0.0059

# Copied from the list:
# Entry for CUUAAGGAGACCUUCUACUGGGUUACCUCAA under pre-steady-state target cleavage rate: 0.0009 ± 0.011
# Entry for CUUAAGGAGACCUUCUACUGGGUUACGCUAA under pre-steady-state target cleavage rate: 0.000395 ± 0.023
# Entry for CUUAAGGAGACCAUCUACUGGGUUAACCUAA under pre-steady-state target cleavage rate: 0.000772 ± 0.01
# Entry for CUUAAGGAGUGGAUCUACAUGGGUUACCUAA under pre-steady-state target cleavage rate: 0.000336 ± 0.021
# Entry for CUUAUCCUCUGGAUCUUCUCGGUUACCUAA under pre-steady-state target cleavage rate: 0.00253 ± 0.0045

# Remaining list, next part

row,Sequence,pre-steady-state target cleavage rate
1,CUUAAGGAGAGGAUCUACUGGGUUCCUAA,0.000286 ± 0.015
2,CUUAAGCUCUGGAUCAACUGGGUUACCUUA,0.0336 ± 0.011
3,CUUAUCGUCUGGAUCUACUCGGUUACCUAA,0.00107 ± 0.011
4,CUUAAGCUCUGGAUCUACUGGUGUUACCUAA,0.00019 ± 0.031
5,CUUAAGGAGACCUAGAACUGGGUUACCUAAA,0.000112 ± 0.058
6,CUUAAGGUCUGGAUCUACAUGGGUUACCUAA,0.000967 ± 0.0068
7,CUUAAGGAGACGAUCUUCUGGGUUACCUUA,0.00171 ± 0.0064
8,CUUAUCCUCUGGUUCUUCUGGGUUACCUAA,0.338 ± 0.088
9,CUUAUCCUCUGGAUCUACUGGGUUACCUUA,0.13 ± 0.026
10,CUUAACCUCUGGAUCUACUGCGGUUACCUAA,0.00113 ± 0.0083
11,CUUAAGGACUGCAUCUACUCGGUUACCUAA,0.00137 ± 0.013
12,CUUAUCCUCUGGAACUACUGGGUUUCCUAA,1.1 ± 0.56
13,CUUAAGGAGAGGAUCUACAGGGUUACCUUA,0.0102 ± 0.0051
14,CUUAUCCUCUGCAUCUACUGGGUUUCCUAA,0.165 ± 0.071
15,CUUAAGGAGUCCUUCUACUGGGUUACCUAA,0.00105 ± 0.0064
16,CUUAAGGAGACCUUCUACUGGGUAAGCUAA,0.00059 ± 0.016
17,CUUAAGGAGACGAUGUACUGGGUUACCUAA,0.00152 ± 0.0041
18,CUUAAGCUCUGGAUCAACUCGGUUACCUAA,0.000699 ± 0.014
19,CUUAAGGAGAGGAUCUACUGGCGUUACCUAA,0.000306 ± 0.02
20,CUUAAGGAGAGGAUCUACAGGGUUUCCUAA,0.00294 ± 0.0038
21,CUUAAGGAGACCAUGUACUGGGUUACCAAA,0.000276 ± 0.025
22,CUUAAGGACUGCAUCAACUGGGUUACCUAA,0.00274 ± 0.012
23,CUUAAGGAGACCAUCAACAGGGUUACCUAA,0.00058 ± 0.014
24,CUUAAGGUCUGGAUCUACUGGUGUUACCUAA,0.000246 ± 0.017

row,Sequence,pre-steady-state target cleavage rate
1,CUUAAGGAGACGUUCUACUGGGAUACCUAA,0.000105 ± 0.045
2,CUUAAGGAGUGGAUCUACUGGGUUACUCUAA,0.0036 ± 0.0042
3,CUUAAGGAGUGGAUCUAGUGCGUUACCUAA,0.00114 ± 0.0087
4,CUUAAGGAGUGGAUCUAGUGGGAUACCUAA,0.000914 ± 0.013
5,CUUAAGGAGACCUAGAUGACGGUUAACCUAA,0.000127 ± 0.043
6,CUUAAGCUGUGGAUCUACUGGGUUACCAAA,0.00345 ± 0.0054
7,CUUAAGGAGAGGAUCUUGAGGGUUACCUAA,0.000121 ± 0.04
8,CUUAACCUCUGGAUCUACUGGGUUUACCUAA,0.0817 ± 0.019
9,CUUAAGCUCUGGAUCUUCUCGGUUACCUAA,0.00105 ± 0.0073
10,CUUAAGGAGACCUACUACUGGGUUAUCUAA,0.000538 ± 0.013
11,CUUAAGGAGACCUAGUACGUGGGUUACCUAA,0.000264 ± 0.043
12,CUUAACCUCUGGAUCUACUGGGUUAGGAAA,0.00266 ± 0.005
13,CUUAAGGACUGGAUCUUCUGGGAUACCUAA,0.00398 ± 0.009
14,CUUAAGGAGACCUAGAUGUGGGUUACACUAA,0.000265 ± 0.027
15,CUUAACCUCUGGAUCUUCUGGGUUACCUAA,0.0795 ± 0.017
16,CUUAAGGAGACGAUCUACUGGGCUACCUAA,0.000478 ± 0.014
17,CUUAAGGAGACCAUUACUGGGUUACCUAA,0.000922 ± 0.0094
18,CUUAAGGAGAGGAUCUACUGGGUUACCCAA,0.00218 ± 0.0056
19,CUUAAGGAGUAGGAUCUACUGGGUUACCUAA,0.00494 ± 0.0041
20,CUUAAGCUCUGGAUCUUCUGGGUUUCCUAA,0.0561 ± 0.017
21,CUUAUCCUCUGGUUGUACUGGGUUACCUAA,0.151 ± 0.031
22,CUUAAGGACUGGAUCUACUGGGUUACGAAA,0.00358 ± 0.0093
23,CUUAAGGAGACCUACAACUGGGUUAGCUAA,0.000142 ± 0.065
